Measurements reported in PubChem BioAssay AID1224829 (NIAID, 2016).
Aim: 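Secondary check of hits that alter LPS-induced p65 translocation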 (follow-up of hits). System: mouse RAW264.7 G9 macrophage reporter cells. Reagents: single siRNA against mouse genes, 100 nM. Time to read-out: 2 days of siRNA knock-down, then 40 min of LPS before fixing. Treatment: LPS (Salmonella minnesota R595) at 10 ng/ml. Detection: 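Imaging of GFP-p65 after 40 min of LPS; nuclear over perinuclear ring intensity ratio, scaled to plate median and non-targeting control wells, given as z-score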. Reading the numbers: p65 translocation z-score and gene median z-score, per vendor: higher = more nuclear NF-kappaB p65 after LPS. Hit rule: 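Active means the replicate-mean z-score lies beyond plus or minus 2, in either direction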. Calls: active = changed p65 translocation (either direction); inactive = no clear change.
The whole screen tested about 3,800 reagents; shown is a part drawn at random. 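Calls cover raised and lowered translocation; gene median uses one vendor's three siRNAs; qiagen siRNAs acted more weakly than ambion siRNAs.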 Reagents against one gene are numbered here. Reagent sequences are not shown.

| gene | reagent | siRNA vendor or control pool | p65 translocation z-score, replicate mean | p65 translocation z-score, replicate 1 | p65 translocation z-score, replicate 2 | gene median z-score, per vendor | call |
| --- | --- | --- | --- | --- | --- | --- | --- |
| Shc2 | 1 | qiagen single siRNA | -0.189 | -1.35 | 0.977 | 0.711 | inactive |
| Shc2 | 2 | qiagen single siRNA | 1.93 | 0.764 | 3.09 | 0.711 | inactive |
| Shc2 | 3 | qiagen single siRNA | -0.352 | -1.36 | 0.657 | 0.711 | inactive |
| Vmp1 (vacuole membrane protein 1) | 1 | ambion single siRNA | -1.74 | -1.64 | -1.85 | -1.24 | inactive |
| Vmp1 (vacuole membrane protein 1) | 2 | ambion single siRNA | -1.35 | -0.854 | -1.84 | -1.24 | inactive |
| Vmp1 (vacuole membrane protein 1) | 3 | ambion single siRNA | 1.09 | 0.0649 | 2.11 | -1.24 | inactive |
| Vmp1 (vacuole membrane protein 1) | 4 | qiagen single siRNA | 0.867 | 0.33 | 1.4 | -1.58 | inactive |
| Vmp1 (vacuole membrane protein 1) | 5 | qiagen single siRNA | -2.5 | -3.71 | -1.3 | -1.58 | active |
| Vmp1 (vacuole membrane protein 1) | 6 | qiagen single siRNA | -2.8 | -3.72 | -1.87 | -1.58 | active |
| Wls (wntless WNT ligand secretion mediator) | 1 | ambion single siRNA | -0.924 | -1.22 | -0.626 | -0.561 | inactive |
| Wls (wntless WNT ligand secretion mediator) | 2 | ambion single siRNA | -0.561 | -0.58 | -0.543 | -0.561 | inactive |
| Wls (wntless WNT ligand secretion mediator) | 3 | ambion single siRNA | 0.606 | 1.4 | -0.191 | -0.561 | inactive |
| Wls (wntless WNT ligand secretion mediator) | 4 | qiagen single siRNA | 0.154 | -0.67 | 0.978 | -0.67 | inactive |
| Wls (wntless WNT ligand secretion mediator) | 5 | qiagen single siRNA | -0.511 | -1.14 | 0.119 | -0.67 | inactive |
| Wls (wntless WNT ligand secretion mediator) | 6 | qiagen single siRNA | -6.42 | -6.42 | – | -0.67 | active |
| Chchd2 (coiled-coil-helix-coiled-coil-helix domain containing 2) | 1 | ambion single siRNA | -1.39 | -0.994 | -1.78 | -0.546 | inactive |
| Chchd2 (coiled-coil-helix-coiled-coil-helix domain containing 2) | 2 | ambion single siRNA | -0.708 | -0.0983 | -1.32 | -0.546 | inactive |
| Chchd2 (coiled-coil-helix-coiled-coil-helix domain containing 2) | 3 | ambion single siRNA | 0.511 | 0.123 | 0.898 | -0.546 | inactive |
| Chchd2 (coiled-coil-helix-coiled-coil-helix domain containing 2) | 4 | qiagen single siRNA | 1.87 | 1.14 | 2.59 | 1.25 | inactive |
| Chchd2 (coiled-coil-helix-coiled-coil-helix domain containing 2) | 5 | qiagen single siRNA | 1.98 | 1.35 | 2.61 | 1.25 | inactive |
| Chchd2 (coiled-coil-helix-coiled-coil-helix domain containing 2) | 6 | qiagen single siRNA | -4.32 | -3.52 | -5.13 | 1.25 | active |
| Or10g1b (olfactory receptor family 10 subfamily G member 1B) | 1 | ambion single siRNA | -1.58 | -0.417 | -2.74 | -2.34 | inactive |
| Or10g1b (olfactory receptor family 10 subfamily G member 1B) | 2 | ambion single siRNA | -1.93 | -1.93 | -1.94 | -2.34 | inactive |
| Or10g1b (olfactory receptor family 10 subfamily G member 1B) | 3 | ambion single siRNA | -4.32 | -4.42 | -4.22 | -2.34 | active |
| Or10g1b (olfactory receptor family 10 subfamily G member 1B) | 4 | qiagen single siRNA | -0.132 | -0.122 | -0.142 | 0.655 | inactive |
| Or10g1b (olfactory receptor family 10 subfamily G member 1B) | 5 | qiagen single siRNA | 2.01 | 1.75 | 2.27 | 0.655 | active |
| Or10g1b (olfactory receptor family 10 subfamily G member 1B) | 6 | qiagen single siRNA | 0.655 | 1.33 | -0.0174 | 0.655 | inactive |

In a second layout: entries from further up
gene,reagent,siRNA vendor or control pool,"p65 translocation z-score, replicate mean","p65 translocation z-score, replicate 1","p65 translocation z-score, replicate 2","gene median z-score, per vendor",call
Wls (wntless WNT ligand secretion mediator),1,ambion single siRNA,-0.924,-1.22,-0.626,-0.561,inactive
Wls (wntless WNT ligand secretion mediator),2,ambion single siRNA,-0.561,-0.58,-0.543,-0.561,inactive
Wls (wntless WNT ligand secretion mediator),3,ambion single siRNA,0.606,1.4,-0.191,-0.561,inactive
Wls (wntless WNT ligand secretion mediator),4,qiagen single siRNA,0.154,-0.67,0.978,-0.67,inactive
Wls (wntless WNT ligand secretion mediator),5,qiagen single siRNA,-0.511,-1.14,0.119,-0.67,inactive
Wls (wntless WNT ligand secretion mediator),6,qiagen single siRNA,-6.42,-6.42,,-0.67,active
Chchd2 (coiled-coil-helix-coiled-coil-helix domain containing 2),1,ambion single siRNA,-1.39,-0.994,-1.78,-0.546,inactive

Next entries follow.
| gene | reagent | siRNA vendor or control pool | p65 translocation z-score, replicate mean | p65 translocation z-score, replicate 1 | p65 translocation z-score, replicate 2 | gene median z-score, per vendor | call |
| --- | --- | --- | --- | --- | --- | --- | --- |
| Snrnp35 (small nuclear ribonucleoprotein 35 (U11/U12)) | 1 | ambion single siRNA | -1.97 | -1.62 | -2.32 | -0.469 | inactive |
| Snrnp35 (small nuclear ribonucleoprotein 35 (U11/U12)) | 2 | ambion single siRNA | 1.87 | 3.07 | 0.679 | -0.469 | inactive |
| Snrnp35 (small nuclear ribonucleoprotein 35 (U11/U12)) | 3 | ambion single siRNA | – | – | – | -0.469 | inactive |
| Snrnp35 (small nuclear ribonucleoprotein 35 (U11/U12)) | 4 | qiagen single siRNA | -0.708 | -1.72 | 0.301 | -0.142 | inactive |
| Snrnp35 (small nuclear ribonucleoprotein 35 (U11/U12)) | 5 | qiagen single siRNA | -1.24 | -1.24 | – | -0.142 | inactive |
| Snrnp35 (small nuclear ribonucleoprotein 35 (U11/U12)) | 6 | qiagen single siRNA | 0.236 | -0.142 | 0.615 | -0.142 | inactive |
| Cntf (ciliary neurotrophic factor) | 1 | ambion single siRNA | -1.61 | -0.906 | -2.31 | -0.895 | inactive |
| Cntf (ciliary neurotrophic factor) | 2 | ambion single siRNA | 0.0488 | 0.982 | -0.884 | -0.895 | inactive |
| Cntf (ciliary neurotrophic factor) | 3 | ambion single siRNA | -1.57 | -0.452 | -2.7 | -0.895 | inactive |
| Cntf (ciliary neurotrophic factor) | 4 | qiagen single siRNA | 1.83 | 1.29 | 2.37 | 0.671 | inactive |
| Cntf (ciliary neurotrophic factor) | 5 | qiagen single siRNA | -0.155 | 0.643 | -0.952 | 0.671 | inactive |
| Cntf (ciliary neurotrophic factor) | 6 | qiagen single siRNA | -0.473 | 0.699 | -1.64 | 0.671 | inactive |
| Slc38a9 | 1 | ambion single siRNA | 1.02 | 2.05 | -0.00842 | 0.48 | inactive |
| Slc38a9 | 2 | ambion single siRNA | 0.64 | 0.297 | 0.984 | 0.48 | inactive |
| Slc38a9 | 3 | ambion single siRNA | -0.473 | -1.61 | 0.663 | 0.48 | inactive |
| Spi1 (Spi-1 proto-oncogene) | 1 | ambion single siRNA | 2.21 | 2.46 | 1.95 | -3.16 | active |
| Spi1 (Spi-1 proto-oncogene) | 2 | ambion single siRNA | -3.24 | -3.72 | -2.76 | -3.16 | active |
| Spi1 (Spi-1 proto-oncogene) | 3 | ambion single siRNA | -3.82 | -3.56 | -4.09 | -3.16 | active |
| Spi1 (Spi-1 proto-oncogene) | 4 | qiagen single siRNA | -3.9 | -3.9 | – | -2.13 | active |
| Spi1 (Spi-1 proto-oncogene) | 5 | qiagen single siRNA | -0.632 | -0.632 | – | -2.13 | inactive |
| Spi1 (Spi-1 proto-oncogene) | 6 | qiagen single siRNA | -2.13 | -2.13 | – | -2.13 | active |
| Dclre1b (DNA cross-link repair 1B) | 1 | ambion single siRNA | 2.04 | 1.29 | 2.8 | -0.121 | active |
| Dclre1b (DNA cross-link repair 1B) | 2 | ambion single siRNA | -0.718 | -0.686 | -0.75 | -0.121 | inactive |
| Dclre1b (DNA cross-link repair 1B) | 3 | ambion single siRNA | -0.745 | 0.443 | -1.93 | -0.121 | inactive |
| Dclre1b (DNA cross-link repair 1B) | 4 | qiagen single siRNA | 0.855 | 0.538 | 1.17 | 0.251 | inactive |
| Dclre1b (DNA cross-link repair 1B) | 5 | qiagen single siRNA | -0.382 | -0.0359 | -0.727 | 0.251 | inactive |
| Dclre1b (DNA cross-link repair 1B) | 6 | qiagen single siRNA | -0.246 | -1.22 | 0.731 | 0.251 | inactive |
